The values below come from paper doi:10.1101/2021.12.06.471472.

Results are given in words; binding and its absence hold for the method and conditions named. In cells and extracts the contact can be indirect. Some binding calls cover weakened binding; strength is not graded here. Tags and fused reporters may be left off the sequences shown.

For test [1], the target named is T1, AGB1/AGG1 dimer (AtAGB1-nLUC co-expressed with mCherry-AtAGG1) (Arabidopsis thaliana) (UniProt P49177+Q9FDX9).
T1 sequence 1: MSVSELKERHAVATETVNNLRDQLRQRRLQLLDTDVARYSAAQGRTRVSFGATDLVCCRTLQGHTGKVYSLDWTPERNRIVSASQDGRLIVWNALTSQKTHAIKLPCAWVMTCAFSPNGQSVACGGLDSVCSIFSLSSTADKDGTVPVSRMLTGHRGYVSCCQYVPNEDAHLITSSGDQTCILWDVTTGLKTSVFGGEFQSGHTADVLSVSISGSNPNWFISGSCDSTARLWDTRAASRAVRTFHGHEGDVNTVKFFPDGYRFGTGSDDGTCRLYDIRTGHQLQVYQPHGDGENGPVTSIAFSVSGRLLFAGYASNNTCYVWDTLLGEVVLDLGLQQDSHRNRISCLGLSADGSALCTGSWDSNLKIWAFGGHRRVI
T1 sequence 2: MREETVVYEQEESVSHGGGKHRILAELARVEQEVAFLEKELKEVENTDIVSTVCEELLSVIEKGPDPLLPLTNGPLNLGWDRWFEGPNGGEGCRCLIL
The experiment in a line: split reporter.

Test [2] concerns the target T2, Arabidopsis thaliana REGULATOR OF G … 1 protein (AtRGS1), AtRGS1-nLUC (Arabidopsis thaliana) (UniProt Q8H1F2).
T2 sequence: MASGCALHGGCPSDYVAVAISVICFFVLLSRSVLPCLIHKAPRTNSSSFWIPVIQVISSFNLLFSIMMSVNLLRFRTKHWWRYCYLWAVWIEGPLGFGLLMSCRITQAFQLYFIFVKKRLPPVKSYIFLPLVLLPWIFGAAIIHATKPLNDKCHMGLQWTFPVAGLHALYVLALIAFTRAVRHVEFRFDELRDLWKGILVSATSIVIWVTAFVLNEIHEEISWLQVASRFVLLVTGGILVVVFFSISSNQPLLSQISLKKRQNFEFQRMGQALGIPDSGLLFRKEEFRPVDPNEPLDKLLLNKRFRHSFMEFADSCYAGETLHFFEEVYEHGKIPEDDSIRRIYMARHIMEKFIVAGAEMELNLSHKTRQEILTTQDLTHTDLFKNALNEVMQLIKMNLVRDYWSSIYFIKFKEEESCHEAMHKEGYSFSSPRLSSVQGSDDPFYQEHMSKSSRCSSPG
The experiment in a line: split reporter.

B1: AtGPA1, canonical Gα subunit, cLUC-AtGPA1 (protein, UniProt P18064 1-383)
chain: MGLLCSRSRHHTEDTDENTQAAEIERRIEQEAKAEKHIRKLLLLGAGESGKSTIFKQIKLLFQTGFDEGELKSYVPVIHANVYQTIKLLHDGTKEFAQNETDSAKYMLSSESIAIGEKLSEIGGRLDYPRLTKDIAEGIETLWKDPAIQETCARGNELQVPDCTKYLMENLKRLSDINYIPTKEDVLYARVRTTGVVEIQFSPVGENKKSGEVYRLFDVGGQRNERRKWIHLFEGVTAVIFCAAISEYDQTLFEDEQKNRMMETKELFDWVLKQPCFEKTSFMLFLNKFDIFEKKVLDVPLNVCEWFRDYQPVSSGKQEIEHAYEFVKKKFEELYYQNTAPDRVDRVFKIYRTTALDQKLVKKTFKLVDETLRRRNLLEAGLL
In the case of B1, in test [1], the binding result was “binds”.

B2: ATBα, PROTEIN PHOSPHATASE 2A (PP2A) regulatory B subunit alpha isoform, AtATBα-nLUC (protein, UniProt Q38821 1-513)
chain: MNGGDEVVAASADPSLPLEWRFSQVFGERSAGEEVQEVDIISAIEFDNSGNHLATGDRGGRVVLFERTDTNNSSGTRRELEEADYPLRHPEFRYKTEFQSHDPEFDYLKSLEIEEKINKIRWCQTANGALFLLSTNDKTIKFWKVQDKKIKKICDMNSDPSRTVGNGTVASSSNSNITNSCLVNGGVSEVNNSLCNDFSLPAGGISSLRLPVVVTSHESSPVARCRRVYAHAHDYHINSISNNSDGETFISADDLRINLWNLEISNQSFNIVDVKPAKMEDLSEVITSAEFHPTHCNMLAYSSSKGSIRLIDLRQSALCDSHSKLFEEPEQAGPKSFFTEIIASVSDIKFAKEGRYLLSRDYMTLKLWDINMDAGPVATFQVHEYLKPKLCDLYENDSIFDKFECCISGNGLRAATGSYSNLFRVFGVAPGSTETATLEASRNPMRRHVPIPSRPSRALSSITRVVSRGSESPGVDGNTNALDYTTKLLHLAWHPNENSIACAAANSLYMYYA
Turning to B2, in test [2], the binding entry was “binds”.
